Data: paper PMC10933267
Read-outs that look alike come from different tables or passages of the source. Results are given in words; binding and its absence hold for the method and conditions named. In cells and extracts the contact can be indirect. A yes stands for co-enrichment or nearness to the bait. Other partners may have been found. For part of these data: A no says only that the protein was not detected with the bait. Values belong to the molecule of their own block, whether it stands above or below them.

Amino acid sequences for entries named in this document (tags omitted).
UniProt P32243: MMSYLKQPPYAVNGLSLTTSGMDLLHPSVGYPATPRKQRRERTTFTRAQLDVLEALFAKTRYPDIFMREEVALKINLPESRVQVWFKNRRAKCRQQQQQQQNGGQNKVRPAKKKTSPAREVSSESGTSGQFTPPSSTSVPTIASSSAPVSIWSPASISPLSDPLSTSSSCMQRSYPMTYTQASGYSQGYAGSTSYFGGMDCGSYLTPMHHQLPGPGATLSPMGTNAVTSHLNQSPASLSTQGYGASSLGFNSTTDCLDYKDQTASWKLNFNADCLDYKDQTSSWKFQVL
UniProt O43186: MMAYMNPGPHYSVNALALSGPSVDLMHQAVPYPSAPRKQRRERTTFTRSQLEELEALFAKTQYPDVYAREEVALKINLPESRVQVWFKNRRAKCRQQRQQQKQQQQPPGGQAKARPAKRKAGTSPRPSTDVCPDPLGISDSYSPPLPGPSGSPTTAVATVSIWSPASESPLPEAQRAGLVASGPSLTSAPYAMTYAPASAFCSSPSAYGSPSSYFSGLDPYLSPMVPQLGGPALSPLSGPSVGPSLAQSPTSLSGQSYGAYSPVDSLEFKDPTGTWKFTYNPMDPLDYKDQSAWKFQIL
UniProt P57682: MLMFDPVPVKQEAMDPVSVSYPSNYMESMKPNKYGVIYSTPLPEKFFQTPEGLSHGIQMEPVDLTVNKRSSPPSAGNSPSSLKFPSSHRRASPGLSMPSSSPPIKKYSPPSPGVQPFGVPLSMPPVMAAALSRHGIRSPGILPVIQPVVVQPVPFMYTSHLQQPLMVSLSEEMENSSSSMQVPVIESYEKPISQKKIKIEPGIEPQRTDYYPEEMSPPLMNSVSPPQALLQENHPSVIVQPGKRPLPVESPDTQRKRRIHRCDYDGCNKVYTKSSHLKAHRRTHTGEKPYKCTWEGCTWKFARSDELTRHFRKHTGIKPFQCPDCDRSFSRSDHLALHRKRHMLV
UniProt Q92793: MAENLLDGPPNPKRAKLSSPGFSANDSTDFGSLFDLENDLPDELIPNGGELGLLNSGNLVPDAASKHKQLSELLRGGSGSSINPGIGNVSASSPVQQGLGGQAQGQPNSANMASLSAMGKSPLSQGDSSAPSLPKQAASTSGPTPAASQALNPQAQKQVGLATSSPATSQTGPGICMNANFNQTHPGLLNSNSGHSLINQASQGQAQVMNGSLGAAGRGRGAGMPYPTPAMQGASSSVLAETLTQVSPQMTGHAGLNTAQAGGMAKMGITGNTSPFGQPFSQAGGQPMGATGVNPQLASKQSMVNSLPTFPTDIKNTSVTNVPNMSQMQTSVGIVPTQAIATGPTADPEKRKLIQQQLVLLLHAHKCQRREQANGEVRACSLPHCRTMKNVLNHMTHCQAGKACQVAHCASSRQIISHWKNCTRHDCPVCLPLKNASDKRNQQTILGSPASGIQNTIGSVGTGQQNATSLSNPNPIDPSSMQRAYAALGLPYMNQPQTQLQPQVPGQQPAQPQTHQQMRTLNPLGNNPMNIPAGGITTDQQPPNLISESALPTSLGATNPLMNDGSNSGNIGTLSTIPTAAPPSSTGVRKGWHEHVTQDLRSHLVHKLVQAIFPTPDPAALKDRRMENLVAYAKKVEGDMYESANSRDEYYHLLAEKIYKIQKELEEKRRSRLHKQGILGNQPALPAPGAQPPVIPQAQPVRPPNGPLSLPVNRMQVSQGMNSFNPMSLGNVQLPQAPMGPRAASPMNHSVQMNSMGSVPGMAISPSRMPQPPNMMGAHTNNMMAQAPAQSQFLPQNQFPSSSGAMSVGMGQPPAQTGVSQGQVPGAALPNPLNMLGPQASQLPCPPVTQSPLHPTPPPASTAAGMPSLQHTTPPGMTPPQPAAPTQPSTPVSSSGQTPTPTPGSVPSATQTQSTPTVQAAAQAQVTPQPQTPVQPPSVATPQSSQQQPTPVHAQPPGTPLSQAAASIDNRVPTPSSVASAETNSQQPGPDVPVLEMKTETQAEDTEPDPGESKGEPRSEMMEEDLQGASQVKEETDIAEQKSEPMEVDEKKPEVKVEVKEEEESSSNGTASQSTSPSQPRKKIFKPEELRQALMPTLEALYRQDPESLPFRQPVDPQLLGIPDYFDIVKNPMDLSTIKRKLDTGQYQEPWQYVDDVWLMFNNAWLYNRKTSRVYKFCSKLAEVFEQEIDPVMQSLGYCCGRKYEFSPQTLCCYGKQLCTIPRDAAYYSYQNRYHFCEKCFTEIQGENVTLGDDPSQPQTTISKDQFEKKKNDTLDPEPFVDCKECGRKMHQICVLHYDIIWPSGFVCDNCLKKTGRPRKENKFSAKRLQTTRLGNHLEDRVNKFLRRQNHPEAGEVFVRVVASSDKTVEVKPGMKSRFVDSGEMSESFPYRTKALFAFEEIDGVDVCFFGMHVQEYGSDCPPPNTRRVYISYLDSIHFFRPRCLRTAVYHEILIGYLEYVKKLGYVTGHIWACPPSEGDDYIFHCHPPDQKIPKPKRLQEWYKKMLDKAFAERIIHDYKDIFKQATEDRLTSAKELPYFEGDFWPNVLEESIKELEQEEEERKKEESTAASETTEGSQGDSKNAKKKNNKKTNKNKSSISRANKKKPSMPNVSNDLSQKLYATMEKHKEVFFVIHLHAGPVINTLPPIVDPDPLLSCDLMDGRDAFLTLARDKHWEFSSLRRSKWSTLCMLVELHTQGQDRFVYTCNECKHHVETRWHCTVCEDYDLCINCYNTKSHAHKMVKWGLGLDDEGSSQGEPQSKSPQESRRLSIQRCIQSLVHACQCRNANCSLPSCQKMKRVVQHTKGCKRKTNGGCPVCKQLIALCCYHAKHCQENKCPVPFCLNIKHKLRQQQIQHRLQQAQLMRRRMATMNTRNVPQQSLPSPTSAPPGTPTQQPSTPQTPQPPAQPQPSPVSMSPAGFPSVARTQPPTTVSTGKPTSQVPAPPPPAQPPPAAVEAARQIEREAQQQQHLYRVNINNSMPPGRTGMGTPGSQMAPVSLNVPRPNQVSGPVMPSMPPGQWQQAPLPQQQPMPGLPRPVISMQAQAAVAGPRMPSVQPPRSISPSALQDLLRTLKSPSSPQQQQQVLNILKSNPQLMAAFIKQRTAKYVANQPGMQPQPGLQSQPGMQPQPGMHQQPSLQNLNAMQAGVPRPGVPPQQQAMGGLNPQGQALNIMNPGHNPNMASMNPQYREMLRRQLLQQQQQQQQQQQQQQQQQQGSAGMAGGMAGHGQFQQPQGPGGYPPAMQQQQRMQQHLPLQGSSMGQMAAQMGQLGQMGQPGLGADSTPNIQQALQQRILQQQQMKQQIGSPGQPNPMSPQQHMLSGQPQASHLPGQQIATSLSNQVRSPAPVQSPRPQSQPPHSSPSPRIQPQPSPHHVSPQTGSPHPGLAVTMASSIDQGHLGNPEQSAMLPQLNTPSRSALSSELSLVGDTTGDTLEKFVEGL
UniProt O75461: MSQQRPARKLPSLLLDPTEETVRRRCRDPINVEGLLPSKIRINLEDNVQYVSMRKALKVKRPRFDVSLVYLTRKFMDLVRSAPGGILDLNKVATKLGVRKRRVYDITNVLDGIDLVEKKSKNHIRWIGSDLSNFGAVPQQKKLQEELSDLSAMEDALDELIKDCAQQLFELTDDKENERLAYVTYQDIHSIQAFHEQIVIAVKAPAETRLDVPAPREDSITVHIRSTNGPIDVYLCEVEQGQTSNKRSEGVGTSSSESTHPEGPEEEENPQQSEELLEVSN
UniProt Q96RN5: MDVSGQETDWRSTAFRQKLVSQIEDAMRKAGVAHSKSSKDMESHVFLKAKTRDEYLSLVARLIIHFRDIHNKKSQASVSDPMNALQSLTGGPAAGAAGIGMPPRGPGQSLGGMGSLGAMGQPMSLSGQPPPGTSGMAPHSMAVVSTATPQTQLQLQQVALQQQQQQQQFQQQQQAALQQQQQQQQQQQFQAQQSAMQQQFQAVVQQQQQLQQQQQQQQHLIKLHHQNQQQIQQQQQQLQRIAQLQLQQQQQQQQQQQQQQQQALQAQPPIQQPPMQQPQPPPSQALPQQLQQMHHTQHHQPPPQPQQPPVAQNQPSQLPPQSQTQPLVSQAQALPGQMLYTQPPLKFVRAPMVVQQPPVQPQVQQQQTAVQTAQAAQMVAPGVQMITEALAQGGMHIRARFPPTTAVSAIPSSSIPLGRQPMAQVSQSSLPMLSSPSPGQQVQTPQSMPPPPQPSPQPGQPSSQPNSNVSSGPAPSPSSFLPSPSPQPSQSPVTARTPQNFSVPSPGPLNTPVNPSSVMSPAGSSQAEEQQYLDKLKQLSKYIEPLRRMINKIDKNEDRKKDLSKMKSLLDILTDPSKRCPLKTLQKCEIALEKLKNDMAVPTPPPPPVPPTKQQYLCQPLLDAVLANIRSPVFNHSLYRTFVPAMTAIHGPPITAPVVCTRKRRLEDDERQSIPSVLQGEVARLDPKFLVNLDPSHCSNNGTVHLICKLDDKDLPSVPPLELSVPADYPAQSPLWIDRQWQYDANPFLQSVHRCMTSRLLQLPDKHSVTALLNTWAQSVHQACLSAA
UniProt Q15788: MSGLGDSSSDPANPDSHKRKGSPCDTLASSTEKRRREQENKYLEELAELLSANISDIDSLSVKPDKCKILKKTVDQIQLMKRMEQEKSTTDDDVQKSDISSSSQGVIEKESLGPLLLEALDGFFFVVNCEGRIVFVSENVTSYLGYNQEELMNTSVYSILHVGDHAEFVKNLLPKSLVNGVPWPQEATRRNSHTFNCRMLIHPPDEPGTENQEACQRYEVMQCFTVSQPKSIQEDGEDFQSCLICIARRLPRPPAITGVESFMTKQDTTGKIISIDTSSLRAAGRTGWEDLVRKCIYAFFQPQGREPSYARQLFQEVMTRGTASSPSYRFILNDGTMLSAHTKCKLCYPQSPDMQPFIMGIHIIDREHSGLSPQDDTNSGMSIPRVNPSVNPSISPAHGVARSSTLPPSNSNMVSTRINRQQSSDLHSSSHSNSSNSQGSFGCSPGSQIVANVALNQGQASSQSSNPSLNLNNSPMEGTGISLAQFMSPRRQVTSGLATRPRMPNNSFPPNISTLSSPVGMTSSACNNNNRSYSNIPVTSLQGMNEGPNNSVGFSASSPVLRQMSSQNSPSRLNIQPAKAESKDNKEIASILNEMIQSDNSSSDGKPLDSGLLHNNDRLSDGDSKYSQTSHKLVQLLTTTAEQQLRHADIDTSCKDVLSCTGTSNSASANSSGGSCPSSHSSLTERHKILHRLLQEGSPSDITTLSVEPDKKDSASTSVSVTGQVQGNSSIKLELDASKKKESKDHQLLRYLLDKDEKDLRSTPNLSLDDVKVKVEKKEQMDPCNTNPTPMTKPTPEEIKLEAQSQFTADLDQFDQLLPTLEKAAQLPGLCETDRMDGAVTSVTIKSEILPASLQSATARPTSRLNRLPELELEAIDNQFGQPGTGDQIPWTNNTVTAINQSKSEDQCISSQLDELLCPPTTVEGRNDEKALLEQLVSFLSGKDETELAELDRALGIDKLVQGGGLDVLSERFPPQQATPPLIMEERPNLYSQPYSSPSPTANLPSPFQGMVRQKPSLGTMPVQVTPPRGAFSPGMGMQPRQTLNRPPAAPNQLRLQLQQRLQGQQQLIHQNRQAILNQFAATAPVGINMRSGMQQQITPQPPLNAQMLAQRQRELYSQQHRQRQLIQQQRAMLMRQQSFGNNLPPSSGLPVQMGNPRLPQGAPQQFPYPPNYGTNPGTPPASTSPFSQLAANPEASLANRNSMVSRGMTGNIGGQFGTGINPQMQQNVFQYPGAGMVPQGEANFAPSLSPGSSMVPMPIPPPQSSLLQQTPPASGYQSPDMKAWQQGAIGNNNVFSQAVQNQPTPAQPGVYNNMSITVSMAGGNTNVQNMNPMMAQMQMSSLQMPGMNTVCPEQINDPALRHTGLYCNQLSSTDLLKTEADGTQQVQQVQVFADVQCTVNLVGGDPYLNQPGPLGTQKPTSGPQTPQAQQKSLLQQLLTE

Legend:
Assay in all cases: proximity labelling; BioID-MS: MAC-tagged bait (BirA) in stable Flp-In T-REx 293 cells, tetracycline and 50 µM biotin for 24 h; lysate with Benzonase, sonicated; Strep-Tactin beads; LC-MS; high-confidence interactions by SAINTexpress BFDR < 0.01 and a GFP BioID contaminant database
OTX2 (human) = OTX2 (human) (UniProt P32243)
DPRX (human) = molecular target: T1, DPRX (human) (UniProt A6NFQ7)
T1 sequence: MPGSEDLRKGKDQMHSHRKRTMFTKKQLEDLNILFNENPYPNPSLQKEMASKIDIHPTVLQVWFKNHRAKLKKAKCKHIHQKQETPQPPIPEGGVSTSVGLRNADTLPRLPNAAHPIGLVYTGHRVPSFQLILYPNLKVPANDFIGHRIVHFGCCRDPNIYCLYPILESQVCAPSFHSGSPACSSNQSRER

TPRX2 (human) = molecular target: T2, TPRX2 (human) (UniProt P0DV77)
T2 sequence: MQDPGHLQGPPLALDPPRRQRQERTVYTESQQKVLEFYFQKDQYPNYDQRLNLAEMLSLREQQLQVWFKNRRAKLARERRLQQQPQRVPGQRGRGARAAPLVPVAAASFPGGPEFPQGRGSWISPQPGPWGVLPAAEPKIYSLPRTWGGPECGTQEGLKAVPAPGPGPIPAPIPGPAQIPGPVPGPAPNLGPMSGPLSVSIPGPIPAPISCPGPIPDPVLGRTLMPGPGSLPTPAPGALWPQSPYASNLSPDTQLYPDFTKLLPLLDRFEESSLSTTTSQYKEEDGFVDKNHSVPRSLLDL

CRX (human) [1] = molecular target: CRX (human) (UniProt O43186)
ARGFX (human) = molecular target: T3, ARGFX (human) (UniProt A6NJG6)
T3 sequence: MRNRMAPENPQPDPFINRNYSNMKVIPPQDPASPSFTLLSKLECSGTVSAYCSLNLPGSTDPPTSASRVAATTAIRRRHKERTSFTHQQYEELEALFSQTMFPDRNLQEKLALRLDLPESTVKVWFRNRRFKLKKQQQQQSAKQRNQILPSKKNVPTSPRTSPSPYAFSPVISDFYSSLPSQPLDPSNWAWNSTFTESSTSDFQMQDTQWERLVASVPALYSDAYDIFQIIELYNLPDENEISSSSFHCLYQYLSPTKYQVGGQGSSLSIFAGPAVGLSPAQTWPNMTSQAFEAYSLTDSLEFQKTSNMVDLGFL

CRX (human) [2] = molecular target: CRX (human) (UniProt O43186); remark: listed apart in the source
KLF3 (human) = KLF3 (human) (UniProt P57682)

binding (OTX2 (human)): binds
binding (DPRX (human)): no binding
binding (TPRX2 (human)): binds
binding (CRX (human) [1]): binds
binding (ARGFX (human)): binds
Molecule: CREB-binding protein (from UniProt Q92793 1-2442)

binding (CRX (human) [1]): binds
Molecule: E2F6 (from UniProt O75461 1-281)

binding (DPRX (human)): binds
Molecule: HRNR (from UniProt Q86YZ3 1-2850)

binding (CRX (human) [1]): binds
Molecule: NCOA3 (from UniProt Q9Y6Q9 1-1424)

binding (CRX (human) [2]): binds
B2: NR2C1 (protein, UniProt P13056 1-603)
chain: MATIEEIAHQIIEQQMGEIVTEQQTGQKIQIVTALDHNTQGKQFILTNHDGSTPSKVILARQDSTPGKVFLTTPDAAGVNQLFFTTPDLSAQHLQLLTDNSPDQGPNKVFDLCVVCGDKASGRHYGAVTCEGCKGFFKRSIRKNLVYSCRGSKDCIINKHHRNRCQYCRLQRCIAFGMKQDSVQCERKPIEVSREKSSNCAASTEKIYIRKDLRSPLTATPTFVTDSESTRSTGLLDSGMFMNIHPSGVKTESAVLMTSDKAESCQGDLSTLANVVTSLANLGKTKDLSQNSNEMSMIESLSNDDTSLCEFQEMQTNGDVSRAFDTLAKALNPGESTACQSSVAGMEGSVHLITGDSSINYTEKEGPLLSDSHVAFRLTMPSPMPEYLNVHYIGESASRLLFLSMHWALSIPSFQALGQENSISLVKAYWNELFTLGLAQCWQVMNVATILATFVNCLHNSLQQDKMSTERRKLLMEHIFKLQEFCNSMVKLCIDGYEYAYLKAIVLFSPDHPSLENMEQIEKFQEKAYVEFQDYITKTYPDDTYRLSRLLLRLPALRLMNATITEELFFKGLIGNIRIDSVIPHILKMEPADYNSQIIGHSI

binding (KLF3 (human)): binds
B4: ZNF423 (protein, UniProt Q2M1K9 1-1284)
chain: MHKKRVEEGEASDFSLAWDSSVTAAGGLEGEPECDQKTSRALEDRNSVTSQEERNEDDEDMEDESIYTCDHCQQDFESLADLTDHRAHRCPGDGDDDPQLSWVASSPSSKDVASPTQMIGDGCDLGLGEEEGGTGLPYPCQFCDKSFIRLSYLKRHEQIHSDKLPFKCTYCSRLFKHKRSRDRHIKLHTGDKKYHCHECEAAFSRSDHLKIHLKTHSSSKPFKCTVCKRGFSSTSSLQSHMQAHKKNKEHLAKSEKEAKKDDFMCDYCEDTFSQTEELEKHVLTRHPQLSEKADLQCIHCPEVFVDENTLLAHIHQAHANQKHKCPMCPEQFSSVEGVYCHLDSHRQPDSSNHSVSPDPVLGSVASMSSATPDSSASVERGSTPDSTLKPLRGQKKMRDDGQGWTKVVYSCPYCSKRDFNSLAVLEIHLKTIHADKPQQSHTCQICLDSMPTLYNLNEHVRKLHKNHAYPVMQFGNISAFHCNYCPEMFADINSLQEHIRVSHCGPNANPSDGNNAFFCNQCSMGFLTESSLTEHIQQAHCSVGSAKLESPVVQPTQSFMEVYSCPYCTNSPIFGSILKLTKHIKENHKNIPLAHSKKSKAEQSPVSSDVEVSSPKRQRLSASANSISNGEYPCNQCDLKFSNFESFQTHLKLHLELLLRKQACPQCKEDFDSQESLLQHLTVHYMTTSTHYVCESCDKQFSSVDDLQKHLLDMHTFVLYHCTLCQEVFDSKVSIQVHLAVKHSNEKKMYRCTACNWDFRKEADLQVHVKHSHLGNPAKAHKCIFCGETFSTEVELQCHITTHSKKYNCKFCSKAFHAIILLEKHLREKHCVFDAATENGTANGVPPMATKKAEPADLQGMLLKNPEAPNSHEASEDDVDASEPMYGCDICGAAYTMEVLLQNHRLRDHNIRPGEDDGSRKKAEFIKGSHKCNVCSRTFFSENGLREHLQTHRGPAKHYMCPICGERFPSLLTLTEHKVTHSKSLDTGTCRICKMPLQSEEEFIEHCQMHPDLRNSLTGFRCVVCMQTVTSTLELKIHGTFHMQKLAGSSAASSPNGQGLQKLYKCALCLKEFRSKQDLVKLDVNGLPYGLCAGCMARSANGQVGGLAPPEPADRPCAGLRCPECSVKFESAEDLESHMQVDHRDLTPETSGPRKGTQTSPVPRKKTYQCIKCQMTFENEREIQIHVANHMIEEGINHECKLCNQMFDSPAKLLCHLIEHSFEGMGGTFKCPVCFTVFVQANKLQQHIFAVHGQEDKIYDCSQCPQKFFFQTELQNHTMSQHAQ

binding (CRX (human) [2]): binds
B5: NR2C2 (protein, UniProt P49116 1-596)
chain: MTSPSPRIQIISTDSAVASPQRIQIVTDQQTGQKIQIVTAVDASGSPKQQFILTSPDGAGTGKVILASPETSSAKQLIFTTSDNLVPGRIQIVTDSASVERLLGKTDVQRPQVVEYCVVCGDKASGRHYGAVSCEGCKGFFKRSVRKNLTYSCRSNQDCIINKHHRNRCQFCRLKKCLEMGMKMESVQSERKPFDVQREKPSNCAASTEKIYIRKDLRSPLIATPTFVADKDGARQTGLLDPGMLVNIQQPLIREDGTVLLATDSKAETSQGALGTLANVVTSLANLSESLNNGDTSEIQPEDQSASEITRAFDTLAKALNTTDSSSSPSLADGIDTSGGGSIHVISRDQSTPIIEVEGPLLSDTHVTFKLTMPSPMPEYLNVHYICESASRLLFLSMHWARSIPAFQALGQDCNTSLVRACWNELFTLGLAQCAQVMSLSTILAAIVNHLQNSIQEDKLSGDRIKQVMEHIWKLQEFCNSMAKLDIDGYEYAYLKAIVLFSPDHPGLTSTSQIEKFQEKAQMELQDYVQKTYSEDTYRLARILVRLPALRLMSSNITEELFFTGLIGNVSIDSIIPYILKMETAEYNGQITGASL

Continued, molecule first:

Molecule: MED15 (from UniProt Q96RN5 1-788)
binding (DPRX (human)): no binding
binding (TPRX2 (human)): binds
binding (CRX (human) [1]): binds

Molecule: NCOA1 (from UniProt Q15788 1-1441)
binding (CRX (human) [1]): binds

Molecule: NCOA2 (from UniProt Q15596 1-1464)
binding (CRX (human) [1]): binds

B1: TFAP4 (protein, UniProt Q01664 1-338)
chain: MEYFMVPTQKVPSLQHFRKTEKEVIGGLCSLANIPLTPETQRDQERRIRREIANSNERRRMQSINAGFQSLKTLIPHTDGEKLSKAAILQQTAEYIFSLEQEKTRLLQQNTQLKRFIQELSGSSPKRRRAEDKDEGIGSPDIWEDEKAEDLRREMIELRQQLDKERSVRMMLEEQVRSLEAHMYPEKLKVIAQQVQLQQQQEQVRLLHQEKLEREQQQLRTQLLPPPAPTHHPTVIVPAPPPPPSHHINVVTMGPSSVINSVSTSRQNLDTIVQAIQHIEGTQEKQELEEEQRRAVIVKPVRSCPEAPTSDTASDSEASDSDAMDQSREEPSGDGELP
binding (CRX (human) [2]): binds

B3: ZZZ3 (protein, UniProt Q8IYH5 1-903)
chain: MAASRSTRVTRSTVGLNGLDESFCGRTLRNRSIAHPEEISSNSQVRSRSPKKRPEPVPIQKGNNNGRTTDLKQQSTRESWVSPRKRGLSSSEKDNIERQAIENCERRQTEPVSPVLKRIKRCLRSEAPNSSEEDSPIKSDKESVEQRSTVVDNDADFQGTKRACRCLILDDCEKREIKKVNVSEEGPLNSAVVEEITGYLAVNGVDDSDSAVINCDDCQPDGNTKQNSIGSYVLQEKSVAENGDTDTQTSMFLDSRKEDSYIDHKVPCTDSQVQVKLEDHKIVTACLPVEHVNQLTTEPATGPFSETQSSLRDSEEEVDVVGDSSASKEQCKENTNNELDTSLESMPASGEPEPSPVLDCVSAQMMSLSEPQEHRYTLRTSPRRAAPTRGSPTKNSSPYRENGQFEENNLSPNETNATVSDNVSQSPTNPGEISQNEKGICCDSQNNGSEGVSKPPSEARLNIGHLPSAKESASQHITEEEDDDPDVYYFESDHVALKHNKDYQRLLQTIAVLEAQRSQAVQDLESLGRHQREALKNPIGFVEKLQKKADIGLPYPQRVVQLPEIVWDQYTHSLGNFEREFKNRKRHTRRVKLVFDKVGLPARPKSPLDPKKDGESLSYSMLPLSDGPEGSSSRPQMIRGRLCDDTKPETFNQLWTVEEQKKLEQLLIKYPPEEVESRRWQKIADELGNRTAKQVASRVQKYFIKLTKAGIPVPGRTPNLYIYSKKSSTSRRQHPLNKHLFKPSTFMTSHEPPVYMDEDDDRSCFHSHMNTAVEDASDDESIPIMYRNLPEYKELLQFKKLKKQKLQQMQAESGFVQHVGFKCDNCGIEPIQGVRWHCQDCPPEMSLDFCDSCSDCLHETDIHKEDHQLEPIYRSETFLDRDYCVSQGTSYNYLDPNYFPANR
binding (KLF3 (human)): binds
